Assay results as given in the supplement of paper PMC8728848.
This is one part of the list.

Tests used:
Test in all cases: glycan array binding signal (z-score within array); higher = stronger binding
Details in all cases: glycan notation: IUPAC condensed, linker removed; mutation: Y54A
Gal(a1-6)Glc = biological target: Gal(a1-6)Glc
Procedure, shortened: (§1)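 The Consortium for Functional Glycomics database supplied 3228 glycan arrays, of which those lacking an available protein sequence were dropped. The binding signal, a within-array Z-score, was averaged across arrays of the same protein sequence and across linkers. Negative scores can be read as non-binding.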

Gal(b1-2)Gal = biological target: Gal(b1-2)Gal
Procedure, shortened: as §1

Gal(b1-3)Gal = biological target: Gal(b1-3)Gal
Procedure, shortened: as §1

Gal(b1-3)Gal(b1-4)GlcNAc = biological target: Gal(b1-3)Gal(b1-4)GlcNAc
Procedure, shortened: as §1

Gal(b1-3)GalNAc = biological target: Gal(b1-3)GalNAc
Procedure, shortened: as §1

[1] = biological target: Gal(b1-3)GalNAc(a1-3)[Fuc(a1-2)]Gal(b1-4)Glc
Procedure, shortened: as §1

[2] = biological target: Gal(b1-3)GalNAc(a1-3)[Fuc(a1-2)]Gal(b1-4)GlcNAc
Procedure, shortened: as §1

Gal(b1-3)GalNAc(b1-3)Gal = biological target: Gal(b1-3)GalNAc(b1-3)Gal
Procedure, shortened: as §1

[3] = biological target: Gal(b1-3)GalNAc(b1-3)Gal(a1-4)Gal(b1-4)Glc
Procedure, shortened: as §1

[4] = biological target: Gal(b1-3)GalNAc(b1-4)Gal(b1-4)Glc
Procedure, shortened: as §1

[5] = biological target: Gal(b1-3)GalNAc(b1-4)[Neu5Ac(a2-3)]Gal(b1-4)Glc
Procedure, shortened: as §1

Gal(b1-3)GlcNAc = biological target: Gal(b1-3)GlcNAc
Procedure, shortened: as §1

[6] = biological target: Gal(b1-3)GlcNAc(a1-3)Gal(b1-4)GlcNAc
Procedure, shortened: as §1

[7] = biological target: Gal(b1-3)GlcNAc(a1-6)Gal(b1-4)GlcNAc
Procedure, shortened: as §1

Gal(b1-3)GlcNAc(b1-2)Man = biological target: Gal(b1-3)GlcNAc(b1-2)Man
Procedure, shortened: as §1

[8] = biological target: Gal(b1-3)GlcNAc(b1-2)Man(a1-3)[Gal(b1-3)GlcNAc(b1-2)Man(a1-6)]Man(b1-4)GlcNAc(b1-4)GlcNAc
Procedure, shortened: as §1

[9] = biological target: Gal(b1-3)GlcNAc(b1-2)Man(a1-3)[Gal(b1-3)GlcNAc(b1-2)Man(a1-6)]Man(b1-4)GlcNAc(b1-4)[Fuc(a1-6)]GlcNAc
Procedure, shortened: as §1

[10] = biological target: Gal(b1-3)GlcNAc(b1-2)Man(a1-3)[GlcNAc(b1-4)][Gal(b1-3)GlcNAc(b1-2)Man(a1-6)]Man(b1-4)GlcNAc(b1-4)GlcNAc
Procedure, shortened: as §1

[11] = biological target: Gal(b1-3)GlcNAc(b1-2)[Gal(b1-3)GlcNAc(b1-6)]Man(a1-6)[Gal(b1-3)GlcNAc(b1-2)Man(a1-3)]Man(b1-4)GlcNAc(b1-4)GlcNAc
Procedure, shortened: as §1

[12] = biological target: Gal(b1-3)GlcNAc(b1-3)Gal(b1-3)GlcNAc
Procedure, shortened: as §1

[13] = biological target: Gal(b1-3)GlcNAc(b1-3)Gal(b1-4)Glc
Procedure, shortened: as §1

[14] = biological target: Gal(b1-3)GlcNAc(b1-3)Gal(b1-4)GlcNAc
Procedure, shortened: as §1

[15] = biological target: Gal(b1-3)GlcNAc(b1-3)Gal(b1-4)GlcNAc(b1-2)Man(a1-3)[Gal(b1-3)GlcNAc(b1-3)Gal(b1-4)GlcNAc(b1-2)Man(a1-6)]Man(b1-4)GlcNAc(b1-4)GlcNAc
Procedure, shortened: as §1

[16] = biological target: Gal(b1-3)GlcNAc(b1-3)Gal(b1-4)GlcNAc(b1-2)[Gal(b1-3)GlcNAc(b1-3)Gal(b1-4)GlcNAc(b1-6)]Man(a1-6)[Gal(b1-3)GlcNAc(b1-3)Gal(b1-4)GlcNAc(b1-2)Man(a1-3)]Man(b1-4)GlcNAc(b1-4)[Fuc(a1-6)]GlcNAc
Procedure, shortened: as §1

[17] = biological target: Gal(b1-3)GlcNAc(b1-3)Gal(b1-4)GlcNAc(b1-3)Gal(b1-4)GlcNAc(b1-2)[Gal(b1-3)GlcNAc(b1-3)Gal(b1-4)GlcNAc(b1-3)Gal(b1-4)GlcNAc(b1-6)]Man(a1-6)[Gal(b1-3)GlcNAc(b1-3)Gal(b1-4)GlcNAc(b1-3)Gal(b1-4)GlcNAc(b1-2)Man(a1-3)]Man(b1-4)GlcNAc(b1-4)[Fuc(a1-6)]GlcNAc
Procedure, shortened: as §1

[18] = biological target: Gal(b1-3)GlcNAc(b1-3)Gal(b1-4)GlcNAc(b1-6)[Gal(b1-3)GlcNAc(b1-3)]Gal(b1-4)Glc
Procedure, shortened: as §1

[19] = biological target: Gal(b1-3)GlcNAc(b1-3)Gal(b1-4)[Fuc(a1-3)]GlcNAc
Procedure, shortened: as §1

[20] = biological target: Gal(b1-3)GlcNAc(b1-3)Gal(b1-4)[Fuc(a1-3)]GlcNAc(b1-6)[Gal(b1-3)GlcNAc(b1-3)]Gal(b1-4)Glc
Procedure, shortened: as §1

[21] = biological target: Gal(b1-3)GlcNAc(b1-3)GalNAc
Procedure, shortened: as §1

[22] = biological target: Gal(b1-3)GlcNAc(b1-6)Gal(b1-4)GlcNAc
Procedure, shortened: as §1

[23] = biological target: Gal(b1-3)GlcNAc(b1-6)GalNAc
Procedure, shortened: as §1

[24] = biological target: Gal(b1-3)GlcNAc(b1-6)[Gal(b1-3)]GalNAc
Procedure, shortened: as §1

Gal(b1-3)GlcNAc6S = biological target: Gal(b1-3)GlcNAc6S
Procedure, shortened: as §1

[25] = biological target: Gal(b1-3)[Fuc(a1-4)]GlcNAc
Procedure, shortened: as §1

[26] = biological target: Gal(b1-3)[Fuc(a1-4)]GlcNAc(b1-2)Man
Procedure, shortened: as §1

[27] = biological target: Gal(b1-3)[Fuc(a1-4)]GlcNAc(b1-2)Man(a1-3)[Gal(b1-3)[Fuc(a1-4)]GlcNAc(b1-2)Man(a1-6)]Man(b1-4)GlcNAc(b1-4)[Fuc(a1-6)]GlcNAc
Procedure, shortened: as §1

[28] = biological target: Gal(b1-3)[Fuc(a1-4)]GlcNAc(b1-3)Gal(b1-3)[Fuc(a1-4)]GlcNAc
Procedure, shortened: as §1

[29] = biological target: Gal(b1-3)[Fuc(a1-4)]GlcNAc(b1-3)Gal(b1-4)[Fuc(a1-3)]GlcNAc
Procedure, shortened: as §1

[30] = biological target: Gal(b1-3)[Fuc(a1-4)]GlcNAc(b1-6)GalNAc
Procedure, shortened: as §1

[31] = biological target: Gal(b1-3)[GlcNAc(b1-6)]GalNAc
Procedure, shortened: as §1

[32] = biological target: Gal(b1-3)[Neu5Ac(a2-6)]GalNAc
Procedure, shortened: as §1

[33] = biological target: Gal(b1-3)[Neu5Ac(a2-6)]GlcNAc(b1-4)Gal(b1-4)Glc
Procedure, shortened: as §1

[34] = biological target: Gal(b1-3)[Neu5Ac(b2-6)]GalNAc
Procedure, shortened: as §1

Gal(b1-4)Gal = biological target: Gal(b1-4)Gal
Procedure, shortened: as §1

[35] = biological target: Gal(b1-4)GalNAc(a1-3)[Fuc(a1-2)]Gal(b1-4)GlcNAc
Procedure, shortened: as §1

B1: CBP21 (Serratia marcescens), O83009 (protein)
chain: MNKTSRTLLSLGLLSAAMFGVSQQANAHGYVESPASRAYQCKLQLNTQCGSVQAEPQSVEGLKGFPQAGPADGHIASADKSTFFELDQQTPTRWNKLNLKTGPNSFTWKLTARHSTTSWRYFITKPNWDASQPLTRASFDLTPFCQFNDGGAIPAAQVTHQCNIPADRSGSHVILAVWDIADTANAFYQAIDVNLSK
glycan array binding signal (z-score) (Gal(a1-6)Glc): 0.171
glycan array binding signal (z-score) (Gal(b1-2)Gal): 0.343
glycan array binding signal (z-score) (Gal(b1-3)Gal): -0.635
glycan array binding signal (z-score) (Gal(b1-3)Gal(b1-4)GlcNAc): -0.869
glycan array binding signal (z-score) (Gal(b1-3)GalNAc): -0.519
glycan array binding signal (z-score) [1]: 0.552
glycan array binding signal (z-score) [2]: 0.002
glycan array binding signal (z-score) (Gal(b1-3)GalNAc(b1-3)Gal): -0.631
glycan array binding signal (z-score) [3]: 0.231
glycan array binding signal (z-score) [4]: 0.691
glycan array binding signal (z-score) [5]: -1.06
glycan array binding signal (z-score) (Gal(b1-3)GlcNAc): 0.006
glycan array binding signal (z-score) [6]: -0.455
glycan array binding signal (z-score) [7]: -0.279
glycan array binding signal (z-score) (Gal(b1-3)GlcNAc(b1-2)Man): -0.13
glycan array binding signal (z-score) [8]: -0.113
glycan array binding signal (z-score) [9]: -1.39
glycan array binding signal (z-score) [10]: -0.459
glycan array binding signal (z-score) [11]: -0.408
glycan array binding signal (z-score) [12]: 0.339
glycan array binding signal (z-score) [13]: 1.22
glycan array binding signal (z-score) [14]: -0.479
glycan array binding signal (z-score) [15]: 2.73
glycan array binding signal (z-score) [16]: -0.069
glycan array binding signal (z-score) [17]: 0.349
glycan array binding signal (z-score) [18]: 0.206
glycan array binding signal (z-score) [19]: -0.001
glycan array binding signal (z-score) [20]: -0.866
glycan array binding signal (z-score) [21]: 1.21
glycan array binding signal (z-score) [22]: -0.48
glycan array binding signal (z-score) [23]: -0.691
glycan array binding signal (z-score) [24]: -0.318
glycan array binding signal (z-score) (Gal(b1-3)GlcNAc6S): -0.888
glycan array binding signal (z-score) [25]: -0.359
glycan array binding signal (z-score) [26]: 0.608
glycan array binding signal (z-score) [27]: 0.588
glycan array binding signal (z-score) [28]: -0.221
glycan array binding signal (z-score) [29]: -0.201
glycan array binding signal (z-score) [30]: -0.717
glycan array binding signal (z-score) [31]: -0.666
glycan array binding signal (z-score) [32]: -0.166
glycan array binding signal (z-score) [33]: -0.271
glycan array binding signal (z-score) [34]: -0.397
glycan array binding signal (z-score) (Gal(b1-4)Gal): 1.25
glycan array binding signal (z-score) [35]: -1.45
